Binding data for 1 molecule are collected here from patent US20220378825A1.

Sequences of proteins named here, by UniProt entry; tags and fusion partners are left off. Residues count along the entry.
UniProt P13747, residues 22-358: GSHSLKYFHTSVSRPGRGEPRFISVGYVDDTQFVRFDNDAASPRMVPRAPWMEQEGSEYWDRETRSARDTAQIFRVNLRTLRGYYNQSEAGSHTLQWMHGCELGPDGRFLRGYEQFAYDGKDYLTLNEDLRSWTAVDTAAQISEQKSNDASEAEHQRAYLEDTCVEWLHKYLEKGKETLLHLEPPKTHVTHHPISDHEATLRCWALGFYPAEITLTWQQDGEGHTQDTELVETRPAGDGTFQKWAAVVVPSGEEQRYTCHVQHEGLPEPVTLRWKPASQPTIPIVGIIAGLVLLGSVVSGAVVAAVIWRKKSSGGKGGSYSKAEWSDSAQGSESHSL

The target in this test is Human leukocyte antigen (HLA) system E; HLA class I histocompatibility antigen, alpha chain E (HLA-E) (human) (UniProt P13747). In words: peptide pulsing of dendritic cells, then PFA fixation; no direct binding read-out printed.

Results are given in words; binding and its absence hold for the method and conditions named. Some entries that bind do so weakly or less than the wild type.

B1: human heat shock protein 60 signal peptide (hHsp60sp) (peptide)
peptide: QMRPVSRVL
Consider B1, for which the binding result is recorded as “binds”.
